# Results published in the supplement of paper PMC8728848.
# This is one part of the list.
# B1: SHCBP1-GST (Homo sapiens), Q8NEM2 (protein)
# chain: MADGSLTGGGLEAAAMAPERMGWAVEQELASLEKGLFQDEDSCSDCSYRDKPGSSLQSFMPEGKTFFPEIFQTNQLLFYERFRAYQDYILADCKASEVQEFTAEFLEKVLEPSGWRAVWHTNVFKVLVEITDVDFAALKAVVRLAEPYLCDSQVSTFTMECMKELLDLKEHRLPLQELWVVFDDSGVFDQTALAIEHVRFFYQNIWRSWDEEEEDEYDYFVRCVEPRLRLHYDILEDRVPSGLIVDYHNLLSQCEESYRKFLNLRSSLSNCNSDSEQENISMVEGLKLYSEMEQLKQKLKLIENPLLRYVFGYQKNSNIQAKGVRSSGQKITHVVSSTMMAGLLRSLLTDRLCQEPGEEEREIQFHSDPLSAINACFEGDTVIVCPGHYVVHGTFSIADSIELEGYGLPDDIVIEKRGKGDTFVDCTGADIKISGIKFVQHDAVEGILIVHRGKTTLENCVLQCETTGVTVRTSAEFLMKNSDLYGAKGAGIEIYPGSQCTLSDNGIHHCKEGILIKDFLDEHYDIPKISMVNNIIHNNEGYGVVLVKPTIFSDLQENAEDGTEENKALKIQTSGEPDVAERVDLEELIECATGKMELCARTDPSEQVEGNCEIVNELIAASTQKGQIKKKRLSELGITQADDNLMSQEMFVGIVGNQFKWNGKGSFGTFLF
# Experiments:
# Experiment in all cases: glycan array binding signal (z-score within array); higher = stronger binding
# Conditions in all cases: glycan notation: IUPAC condensed, linker removed
# [1] = biological target: Gal(b1-4)GlcNAc(b1-3)Gal(b1-4)GlcNAc(b1-2)Man(a1-3)[Gal(b1-4)GlcNAc(b1-3)Gal(b1-4)GlcNAc(b1-2)Man(a1-6)]Man(b1-4)GlcNAc(b1-4)[Fuc(a1-6)]GlcNAc
# How it was run: (§1)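 Negative Z-scores can be read as non-binding. The Z-score is calculated within each array and then averaged across arrays of one protein sequence at different concentrations or buffers and across linkers. Arrays, 3228 in all, were curated from the Consortium for Functional Glycomics database and kept only where the protein sequence was available.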
# [2] = biological target: Gal(b1-4)GlcNAc(b1-3)Gal(b1-4)GlcNAc(b1-2)[Gal(b1-4)GlcNAc(b1-3)Gal(b1-4)GlcNAc(b1-6)]Man(a1-6)[Gal(b1-4)GlcNAc(b1-3)Gal(b1-4)GlcNAc(b1-2)Man(a1-3)]Man(b1-4)GlcNAc(b1-4)GlcNAc
# How it was run: as §1
# [3] = biological target: Gal(b1-4)GlcNAc(b1-3)Gal(b1-4)GlcNAc(b1-2)[Gal(b1-4)GlcNAc(b1-3)Gal(b1-4)GlcNAc(b1-6)]Man(a1-6)[Gal(b1-4)GlcNAc(b1-3)Gal(b1-4)GlcNAc(b1-2)Man(a1-3)]Man(b1-4)GlcNAc(b1-4)[Fuc(a1-6)]GlcNAc
# How it was run: as §1
# [4] = biological target: Gal(b1-4)GlcNAc(b1-3)Gal(b1-4)GlcNAc(b1-3)Gal(b1-4)GlcNAc
# How it was run: as §1
# [5] = biological target: Gal(b1-4)GlcNAc(b1-3)Gal(b1-4)GlcNAc(b1-3)Gal(b1-4)GlcNAc(b1-2)Man(a1-3)[Gal(b1-4)GlcNAc(b1-3)Gal(b1-4)GlcNAc(b1-3)Gal(b1-4)GlcNAc(b1-2)Man(a1-6)]Man(b1-4)GlcNAc(b1-4)GlcNAc
# How it was run: as §1
# [6] = biological target: Gal(b1-4)GlcNAc(b1-3)Gal(b1-4)GlcNAc(b1-3)Gal(b1-4)GlcNAc(b1-2)Man(a1-3)[Gal(b1-4)GlcNAc(b1-3)Gal(b1-4)GlcNAc(b1-3)Gal(b1-4)GlcNAc(b1-2)Man(a1-6)]Man(b1-4)GlcNAc(b1-4)[Fuc(a1-6)]GlcNAc
# How it was run: as §1
# [7] = biological target: Gal(b1-4)GlcNAc(b1-3)Gal(b1-4)GlcNAc(b1-3)Gal(b1-4)GlcNAc(b1-2)[Gal(b1-4)GlcNAc(b1-3)Gal(b1-4)GlcNAc(b1-3)Gal(b1-4)GlcNAc(b1-6)]Man(a1-6)[Gal(b1-4)GlcNAc(b1-3)Gal(b1-4)GlcNAc(b1-3)Gal(b1-4)GlcNAc(b1-2)Man(a1-3)]Man(b1-4)GlcNAc(b1-4)[Fuc(a1-6)]GlcNAc
# How it was run: as §1
# [8] = biological target: Gal(b1-4)GlcNAc(b1-3)Gal(b1-4)GlcNAc(b1-3)Gal(b1-4)GlcNAc(b1-3)Gal(b1-4)GlcNAc(b1-2)Man(a1-3)[Gal(b1-4)GlcNAc(b1-3)Gal(b1-4)GlcNAc(b1-3)Gal(b1-4)GlcNAc(b1-3)Gal(b1-4)GlcNAc(b1-2)Man(a1-6)]Man(b1-4)GlcNAc(b1-4)GlcNAc
# How it was run: as §1
# [9] = biological target: Gal(b1-4)GlcNAc(b1-3)Gal(b1-4)GlcNAc(b1-3)Gal(b1-4)GlcNAc(b1-3)Gal(b1-4)GlcNAc(b1-2)Man(a1-3)[Gal(b1-4)GlcNAc(b1-3)Gal(b1-4)GlcNAc(b1-3)Gal(b1-4)GlcNAc(b1-3)Gal(b1-4)GlcNAc(b1-2)Man(a1-6)]Man(b1-4)GlcNAc(b1-4)[Fuc(a1-6)]GlcNAc
# How it was run: as §1
# [10] = biological target: Gal(b1-4)GlcNAc(b1-3)Gal(b1-4)GlcNAc(b1-3)Gal(b1-4)GlcNAc(b1-3)Gal(b1-4)GlcNAc(b1-2)[Gal(b1-4)GlcNAc(b1-3)Gal(b1-4)GlcNAc(b1-3)Gal(b1-4)GlcNAc(b1-3)Gal(b1-4)GlcNAc(b1-6)]Man(a1-6)[Gal(b1-4)GlcNAc(b1-3)Gal(b1-4)GlcNAc(b1-3)Gal(b1-4)GlcNAc(b1-3)Gal(b1-4)GlcNAc(b1-2)Man(a1-3)]Man(b1-4)GlcNAc(b1-4)[Fuc(a1-6)]GlcNAc
# How it was run: as §1
# [11] = biological target: Gal(b1-4)GlcNAc(b1-3)Gal(b1-4)GlcNAc(b1-3)Gal(b1-4)GlcNAc(b1-3)Gal(b1-4)GlcNAc(b1-3)Gal(b1-4)GlcNAc(b1-2)Man(a1-3)[Gal(b1-4)GlcNAc(b1-3)Gal(b1-4)GlcNAc(b1-3)Gal(b1-4)GlcNAc(b1-3)Gal(b1-4)GlcNAc(b1-3)Gal(b1-4)GlcNAc(b1-2)Man(a1-6)]Man(b1-4)GlcNAc(b1-4)GlcNAc
# How it was run: as §1
# [12] = biological target: Gal(b1-4)GlcNAc(b1-3)Gal(b1-4)GlcNAc(b1-3)Gal(b1-4)GlcNAc(b1-3)Gal(b1-4)GlcNAc(b1-3)Gal(b1-4)GlcNAc(b1-2)Man(a1-3)[Gal(b1-4)GlcNAc(b1-3)Gal(b1-4)GlcNAc(b1-3)Gal(b1-4)GlcNAc(b1-3)Gal(b1-4)GlcNAc(b1-3)Gal(b1-4)GlcNAc(b1-2)Man(a1-6)]Man(b1-4)GlcNAc(b1-4)[Fuc(a1-6)]GlcNAc
# How it was run: as §1
# [13] = biological target: Gal(b1-4)GlcNAc(b1-3)Gal(b1-4)GlcNAc(b1-3)Gal(b1-4)GlcNAc(b1-3)Gal(b1-4)GlcNAc(b1-3)Gal(b1-4)GlcNAc(b1-2)[Gal(b1-4)GlcNAc(b1-3)Gal(b1-4)GlcNAc(b1-3)Gal(b1-4)GlcNAc(b1-3)Gal(b1-4)GlcNAc(b1-3)Gal(b1-4)GlcNAc(b1-6)]Man(a1-6)[Gal(b1-4)GlcNAc(b1-3)Gal(b1-4)GlcNAc(b1-3)Gal(b1-4)GlcNAc(b1-3)Gal(b1-4)GlcNAc(b1-3)Gal(b1-4)GlcNAc(b1-2)Man(a1-3)]Man(b1-4)GlcNAc(b1-4)[Fuc(a1-6)]GlcNAc
# How it was run: as §1
# [14] = biological target: Gal(b1-4)GlcNAc(b1-3)Gal(b1-4)GlcNAc(b1-3)Gal(b1-4)GlcNAc(b1-3)Gal(b1-4)GlcNAc(b1-3)Gal(b1-4)GlcNAc(b1-3)Gal(b1-4)GlcNAc(b1-2)Man(a1-3)[Gal(b1-4)GlcNAc(b1-3)Gal(b1-4)GlcNAc(b1-3)Gal(b1-4)GlcNAc(b1-3)Gal(b1-4)GlcNAc(b1-3)Gal(b1-4)GlcNAc(b1-3)Gal(b1-4)GlcNAc(b1-2)Man(a1-6)]Man(b1-4)GlcNAc(b1-4)GlcNAc
# How it was run: as §1
# [15] = biological target: Gal(b1-4)GlcNAc(b1-3)Gal(b1-4)GlcNAc(b1-3)GalNAc
# How it was run: as §1
# [16] = biological target: Gal(b1-4)GlcNAc(b1-3)Gal(b1-4)GlcNAc(b1-3)[Gal(b1-4)GlcNAc(b1-3)Gal(b1-4)GlcNAc(b1-6)]GalNAc
# How it was run: as §1
# [17] = biological target: Gal(b1-4)GlcNAc(b1-3)Gal(b1-4)GlcNAc(b1-6)[Gal(b1-3)]GalNAc
# How it was run: as §1
# [18] = biological target: Gal(b1-4)GlcNAc(b1-3)Gal(b1-4)[Fuc(a1-3)]GlcNAc(b1-3)Gal(b1-4)[Fuc(a1-3)]GlcNAc
# How it was run: as §1
# [19] = biological target: Gal(b1-4)GlcNAc(b1-3)GalNAc
# How it was run: as §1
# [20] = biological target: Gal(b1-4)GlcNAc(b1-3)[Fuc(a1-3)GlcNAc(b1-6)]Gal(b1-4)Glc
# How it was run: as §1
# [21] = biological target: Gal(b1-4)GlcNAc(b1-3)[Gal(b1-4)GlcNAc(b1-6)]Gal(b1-4)GlcNAc
# How it was run: as §1
# [22] = biological target: Gal(b1-4)GlcNAc(b1-3)[GlcNAc(b1-6)]Gal(b1-4)GlcNAc
# How it was run: as §1
# [23] = biological target: Gal(b1-4)GlcNAc(b1-6)Gal(b1-4)GlcNAc
# How it was run: as §1
# [24] = biological target: Gal(b1-4)GlcNAc(b1-6)GalNAc
# How it was run: as §1
# [25] = biological target: Gal(b1-4)GlcNAc(b1-6)[Gal(b1-3)]GalNAc
# How it was run: as §1
# [26] = biological target: Gal(b1-4)GlcNAc(b1-6)[Gal(b1-4)GlcNAc(b1-3)]GalNAc
# How it was run: as §1
# Gal(b1-4)GlcNAc6P = biological target: Gal(b1-4)GlcNAc6P
# How it was run: as §1
# Gal(b1-6)Gal = biological target: Gal(b1-6)Gal
# How it was run: as §1
# Gal3S(b1-3)GalNAc = biological target: Gal3S(b1-3)GalNAc
# How it was run: as §1
# Gal3S(b1-3)GlcNAc = biological target: Gal3S(b1-3)GlcNAc
# How it was run: as §1
binder,measurement,setting,value
B1,glycan array binding signal (z-score),[1],0.801
same,glycan array binding signal (z-score),[2],0.567
same,glycan array binding signal (z-score),[3],2.1
same,glycan array binding signal (z-score),[4],-0.703
same,glycan array binding signal (z-score),[5],1.59
same,glycan array binding signal (z-score),[6],1.54
same,glycan array binding signal (z-score),[7],0.985
same,glycan array binding signal (z-score),[8],1.2
same,glycan array binding signal (z-score),[9],3.03
same,glycan array binding signal (z-score),[10],0.056
same,glycan array binding signal (z-score),[11],0.681
same,glycan array binding signal (z-score),[12],1.46
same,glycan array binding signal (z-score),[13],0.757
same,glycan array binding signal (z-score),[14],1.59
same,glycan array binding signal (z-score),[15],0.849
same,glycan array binding signal (z-score),[16],1.18
same,glycan array binding signal (z-score),[17],1.32
same,glycan array binding signal (z-score),[18],0.48
same,glycan array binding signal (z-score),[19],-0.27
same,glycan array binding signal (z-score),[20],-0.264
same,glycan array binding signal (z-score),[21],-0.723
same,glycan array binding signal (z-score),[22],-0.481
same,glycan array binding signal (z-score),[23],0.489
same,glycan array binding signal (z-score),[24],0.45
same,glycan array binding signal (z-score),[25],0.23
same,glycan array binding signal (z-score),[26],-0.149
same,glycan array binding signal (z-score),Gal(b1-4)GlcNAc6P,0.043
same,glycan array binding signal (z-score),Gal(b1-6)Gal,-0.824
same,glycan array binding signal (z-score),Gal3S(b1-3)GalNAc,-0.165
same,glycan array binding signal (z-score),Gal3S(b1-3)GlcNAc,0.719

# Two neighbouring entries from above, quoted:
binder,measurement,setting,value
B1,glycan array binding signal (z-score),[2],0.567
same,glycan array binding signal (z-score),[3],2.1
